Assay results as given in PMC8808184.
Results are given in words; binding and its absence hold for the method and conditions named.

Target: E1 domain of human APLP1 (human) (UniProt P51693)
Assay: SEC; size-exclusion chromatography of the purified fragments; both purified

B1: E1 domain of human APLP1 (domain or fragment, UniProt P51693 50-212)
chain: APGSAQVAGLCGRLTLHRDLRTGRWEPDPQRSRRCLRDPQRVLEYCRQMYPELQIARVEQATQAIPMERWCGGSRSGSCAHPHHQVVPFRCLPGEFVSEALLVPEGCRFLHQERMDQCESSTRRHQEAQEACSSQGLILHGSGMLLPCGSDRFRGVEYVCCPP
modifications: biotin (EZ-Link NHS-PEG4-Biotin, 1:1 molar ratio) where immobilised in BLI
- binding: no binding
